# The other results are listed elsewhere or left out.
# Tested on: T1, CTL2-GFP (C. trachomatis L2/434/Bu, GFP-expressing)
# T1 construct: L2/434/Bu, GFP-expressing
# Set-up: species or system HeLa; Intracellular C. trachomatis growth in HeLa cells, bulk GFP fluorescence relative to DMSO
# Settings: bulk GFP, single well; 28.5 h, 10 µM; inhibitor
row,SMILES,% of control remaining [%]
1,COc1ccc2c(c1)C1(CC(=O)N(CCC3CCCCC3)C1=O)C(=O)N2C (centres unmarked) [CBK075147],80.7652
2,CCC(=O)Nc1nc2ccccc2n1CCCN(C)C [CBK263492],123.793
3,CC(O)c1ccc(-c2ccc(CNCCCN3CCOCC3)o2)cc1 (centres unmarked) [CBK278178C],145.662
4,CCC1(C)CCCN(Cc2nnnn2-c2ccc(S(C)(=O)=O)cc2)C1 (centres unmarked) [CBK306180],101.341
5,O=C(O)C12CC3CC(C(=O)O)(C1)CC(C(=O)O)(C3)C2 [CBK263442],100
6,Cc1nc(COc2ccccc2)sc1C(=O)N1CCC(C(N)=O)CC1 [CBK202603],94.2863
7,NCC1CCCN1C(=O)c1ccc(Oc2cccc(Br)c2)nc1 (centres unmarked) [CBK304200],57.1898
8,O=C(Nc1nc2nccc(-c3ccccc3)n2n1)c1cccc([N+](=O)[O-])c1 [CBK265414],122.111
9,CCCC(=O)c1ccc(S(=O)(=O)N2CCCN(Cc3ccc(OC)c(F)c3)CC2)cc1 [CBK062926],102.305
10,COc1cc(C=O)ccc1Oc1nnnn1-c1ccc(C(=O)O)cc1 [CBK267071],153.253
11,CCOC(=O)c1ccc(N2C(=O)CC(N3CCN(c4ccc(S(C)(=O)=O)cc4)CC3)C2=O)cc1 (centres unmarked) [CBK268721],98.2415
12,NC(=S)c1ccc2c(c1)OCO2 [CBK022803],126.946
13,CCc1nc2ccc(C(=O)Nc3ccc(OC)c(OC)c3)cn2c1N(C)C(=O)Nc1ccccc1OC [CBK145875],92.3105
14,COc1ccc(OCCN2CCC(C(=O)c3ccc(F)cc3)CC2)cc1 [CBK149136],92.9329
15,O=C(COc1ccc2ccccc2c1)N[C@@H](C(=O)O)c1ccc(O)cc1 [CBK286571],120.527
16,COc1ccc(-n2c(=O)[nH]cc(C(=O)Nc3cccc(Cl)c3C)c2=O)cc1 [CBK287549],120.738
17,O=c1c2ccccc2nc(COc2ccccc2)n1O [CBK288482],111.587
18,N=c1n(CCN2CCCCC2)c2ccccc2n1CC(O)c1cccs1 (centres unmarked) [CBK262908C],100
19,Cc1cc(C)c2nonc2c1S(=O)(=O)NCCN1CCCCC1CO (centres unmarked) [CBK306966],119.602
20,CCCc1cnc(N2CCOCC2)nc1 [CBK028742],147.688
21,CCOc1cc(S(=O)(=O)NCCCn2ccnc2)ccc1Cl [CBK269874],143.245
22,Cc1nc2c(c(=O)[nH]1)CN(Cc1ccc(-c3ccccc3)cc1)CC2 [CBK283952],102.352
23,Cc1nc2c(oc3nc(-c4ccoc4)c4c(c32)CC(C)(C)OC4)c(-c2ccccc2)c1C(=O)O [CBK265286],100
24,O=C(c1cnn(-c2ccc(Cl)cc2Cl)c1)N1CCOCC1c1ncon1 (centres unmarked) [CBK304231],109.528
25,CCc1c(CC)c(OC(=O)C(N)C(C)C)c2ccccc2c1OC (centres unmarked) [CBK016484C],93.4316

row,SMILES,% of control remaining [%]
1,COc1ccccc1-c1ccc(NC(=O)CCn2cnc3ccccc3c2=O)cc1 [CBK285711],119.992
2,CCOC(=O)c1cccc(-c2ccc(F)cc2F)n1 [CBK149245],114.449
3,CCN(CC)C(=O)CN(CCc1ccc(OC)c(OC)c1)C(=O)NCc1c(Cl)cccc1Cl [CBK158743],155.497
4,CCc1[nH]nc2c1C1(CN3CCC1CC3)C(C#N)=C(N)O2 (centres unmarked) [CBK267454],105.199
5,Cc1cccc(C(=O)N/N=C/c2ccoc2)c1O [CBK018727],119.523
6,O=C(O)c1cccc(-c2cccc(N3CCN(c4ccccn4)CC3)n2)c1 [CBK036888],74.4229
7,O=C(O)C1CC(=O)N(CCc2ccccc2)/C(=N/CCc2ccccc2)S1 (centres unmarked) [CBK265558],130.972
8,CC(=O)Nc1ccc(S(=O)(=O)N2CCN(c3cc4[nH]c(=O)[nH]c4cc3[N+](=O)[O-])CC2)cc1 [CBK267013],186.718
9,CC1CCc2nc(NC(=O)Cn3cccc(C(=O)NC4CCCCC4)c3=O)sc2C1 (centres unmarked) [CBK286064],96.1004
10,Cc1nnc2c(N3CCN(CCO)CC3)nc3ccccc3n12 [CBK270146],150.667
11,O=C(c1ccccc1)N1C[C@@H]2CCCCN(CC3CC3)[C@@H]2C1 [CBK285498],149.006
12,COc1ccc(-c2ccccc2NC(=O)c2cccc(CN3CCCC3=O)c2)cc1 [CBK285865],110.704
13,O=C(C1CCCCC1)N1CCC(n2c(=O)[nH]c3ccccc32)CC1 [CBK149703],115.168
14,COC(=O)c1ccc(/C=C/C2=CCN(C)CC2)cc1 [CBK283744],97.24
15,CNC(=O)c1cc2ncc(C(F)(F)F)cc2s1 [CBK089882],134.288
16,Cc1ccc(S(=O)(=O)N2CCN(c3nc(NC(C)c4ccccc4)c4ccccc4n3)CC2)cc1 (centres unmarked) [CBK266448],129.927
17,Cc1ccc(/N=N/N(CC(O)C(O)C(O)CO)c2ccc(C)c(C)c2)cc1C (centres unmarked) [CBK262705],110.495
18,c1c2c(cc3sc(N4CCCC4)nc13)OCCO2 [CBK287496],165.971
19,Cn1c(=O)c(C(=O)Nc2ccc(Cl)cc2)cc2cccnc21 [CBK287741],114.645
20,COC(Cc1nc2ccccc2s1)C(=O)O (centres unmarked) [CBK265806],197.415
21,O=C(Nc1nnc(-c2ccncc2)o1)c1ccc(Cl)cc1Cl [CBK287433],148.724
22,COc1cc(NC(=O)c2ccc3c(c2)C(=O)N(c2c(C)cc(C)cc2C)C3=O)c(C(=O)O)cc1OC [CBK264074],135.053
23,Cc1nn(-c2ccccc2)c(C)c1C1CC(=O)Nc2c1cnn2C(C)C (centres unmarked) [CBK287925],120.585
24,CCCn1ncc(CN2CCC(c3cc4cccnc4[nH]3)CC2)c1C [CBK284949],132.794
25,Cc1nn(CC(=O)N2CCN(C)CC2)c(=O)c2ccccc12 [CBK304221],63.1064

# Given with bars between the fields: entries from further up
row | SMILES | % of control remaining [%]
5 | Cc1cccc(C(=O)N/N=C/c2ccoc2)c1O [CBK018727] | 119.523
6 | O=C(O)c1cccc(-c2cccc(N3CCN(c4ccccn4)CC3)n2)c1 [CBK036888] | 74.4229
7 | O=C(O)C1CC(=O)N(CCc2ccccc2)/C(=N/CCc2ccccc2)S1 (centres unmarked) [CBK265558] | 130.972
8 | CC(=O)Nc1ccc(S(=O)(=O)N2CCN(c3cc4[nH]c(=O)[nH]c4cc3[N+](=O)[O-])CC2)cc1 [CBK267013] | 186.718
9 | CC1CCc2nc(NC(=O)Cn3cccc(C(=O)NC4CCCCC4)c3=O)sc2C1 (centres unmarked) [CBK286064] | 96.1004
10 | Cc1nnc2c(N3CCN(CCO)CC3)nc3ccccc3n12 [CBK270146] | 150.667
11 | O=C(c1ccccc1)N1C[C@@H]2CCCCN(CC3CC3)[C@@H]2C1 [CBK285498] | 149.006
12 | COc1ccc(-c2ccccc2NC(=O)c2cccc(CN3CCCC3=O)c2)cc1 [CBK285865] | 110.704
13 | O=C(C1CCCCC1)N1CCC(n2c(=O)[nH]c3ccccc32)CC1 [CBK149703] | 115.168

# Reference: PMC12040169 (PLOS Biology, 2025)
